The record followed here is publication doi:10.1101/203539.

Sequences of proteins named here, by UniProt entry; tags and fusion partners are left off.
UniProt Q6PHQ9: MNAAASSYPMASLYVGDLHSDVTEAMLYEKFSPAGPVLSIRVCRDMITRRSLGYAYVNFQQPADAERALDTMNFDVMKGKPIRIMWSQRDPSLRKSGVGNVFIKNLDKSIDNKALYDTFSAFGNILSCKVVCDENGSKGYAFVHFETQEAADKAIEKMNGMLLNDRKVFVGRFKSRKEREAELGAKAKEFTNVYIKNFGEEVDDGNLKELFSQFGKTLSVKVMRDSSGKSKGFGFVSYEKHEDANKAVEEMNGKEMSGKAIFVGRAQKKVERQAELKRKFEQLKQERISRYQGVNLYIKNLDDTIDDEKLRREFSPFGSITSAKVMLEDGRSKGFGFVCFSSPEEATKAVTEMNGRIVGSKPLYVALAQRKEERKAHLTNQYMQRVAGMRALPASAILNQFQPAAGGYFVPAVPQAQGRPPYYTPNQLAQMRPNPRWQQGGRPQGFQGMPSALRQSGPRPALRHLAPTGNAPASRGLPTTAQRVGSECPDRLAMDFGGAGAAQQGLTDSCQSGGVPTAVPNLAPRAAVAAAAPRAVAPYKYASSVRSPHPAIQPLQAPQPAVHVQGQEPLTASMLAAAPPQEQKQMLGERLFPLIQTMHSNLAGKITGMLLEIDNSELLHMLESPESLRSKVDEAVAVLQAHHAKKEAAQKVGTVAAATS
UniProt Q9Z204: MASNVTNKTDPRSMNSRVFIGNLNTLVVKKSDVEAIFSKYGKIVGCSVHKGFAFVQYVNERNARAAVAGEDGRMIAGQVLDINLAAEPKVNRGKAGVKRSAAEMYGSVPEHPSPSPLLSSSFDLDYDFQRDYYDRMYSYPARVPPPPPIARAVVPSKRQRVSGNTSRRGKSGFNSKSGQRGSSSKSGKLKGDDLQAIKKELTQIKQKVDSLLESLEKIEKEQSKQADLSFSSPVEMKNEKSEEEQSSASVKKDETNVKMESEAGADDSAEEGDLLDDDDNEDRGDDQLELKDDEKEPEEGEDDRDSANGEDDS
UniProt Q8R151: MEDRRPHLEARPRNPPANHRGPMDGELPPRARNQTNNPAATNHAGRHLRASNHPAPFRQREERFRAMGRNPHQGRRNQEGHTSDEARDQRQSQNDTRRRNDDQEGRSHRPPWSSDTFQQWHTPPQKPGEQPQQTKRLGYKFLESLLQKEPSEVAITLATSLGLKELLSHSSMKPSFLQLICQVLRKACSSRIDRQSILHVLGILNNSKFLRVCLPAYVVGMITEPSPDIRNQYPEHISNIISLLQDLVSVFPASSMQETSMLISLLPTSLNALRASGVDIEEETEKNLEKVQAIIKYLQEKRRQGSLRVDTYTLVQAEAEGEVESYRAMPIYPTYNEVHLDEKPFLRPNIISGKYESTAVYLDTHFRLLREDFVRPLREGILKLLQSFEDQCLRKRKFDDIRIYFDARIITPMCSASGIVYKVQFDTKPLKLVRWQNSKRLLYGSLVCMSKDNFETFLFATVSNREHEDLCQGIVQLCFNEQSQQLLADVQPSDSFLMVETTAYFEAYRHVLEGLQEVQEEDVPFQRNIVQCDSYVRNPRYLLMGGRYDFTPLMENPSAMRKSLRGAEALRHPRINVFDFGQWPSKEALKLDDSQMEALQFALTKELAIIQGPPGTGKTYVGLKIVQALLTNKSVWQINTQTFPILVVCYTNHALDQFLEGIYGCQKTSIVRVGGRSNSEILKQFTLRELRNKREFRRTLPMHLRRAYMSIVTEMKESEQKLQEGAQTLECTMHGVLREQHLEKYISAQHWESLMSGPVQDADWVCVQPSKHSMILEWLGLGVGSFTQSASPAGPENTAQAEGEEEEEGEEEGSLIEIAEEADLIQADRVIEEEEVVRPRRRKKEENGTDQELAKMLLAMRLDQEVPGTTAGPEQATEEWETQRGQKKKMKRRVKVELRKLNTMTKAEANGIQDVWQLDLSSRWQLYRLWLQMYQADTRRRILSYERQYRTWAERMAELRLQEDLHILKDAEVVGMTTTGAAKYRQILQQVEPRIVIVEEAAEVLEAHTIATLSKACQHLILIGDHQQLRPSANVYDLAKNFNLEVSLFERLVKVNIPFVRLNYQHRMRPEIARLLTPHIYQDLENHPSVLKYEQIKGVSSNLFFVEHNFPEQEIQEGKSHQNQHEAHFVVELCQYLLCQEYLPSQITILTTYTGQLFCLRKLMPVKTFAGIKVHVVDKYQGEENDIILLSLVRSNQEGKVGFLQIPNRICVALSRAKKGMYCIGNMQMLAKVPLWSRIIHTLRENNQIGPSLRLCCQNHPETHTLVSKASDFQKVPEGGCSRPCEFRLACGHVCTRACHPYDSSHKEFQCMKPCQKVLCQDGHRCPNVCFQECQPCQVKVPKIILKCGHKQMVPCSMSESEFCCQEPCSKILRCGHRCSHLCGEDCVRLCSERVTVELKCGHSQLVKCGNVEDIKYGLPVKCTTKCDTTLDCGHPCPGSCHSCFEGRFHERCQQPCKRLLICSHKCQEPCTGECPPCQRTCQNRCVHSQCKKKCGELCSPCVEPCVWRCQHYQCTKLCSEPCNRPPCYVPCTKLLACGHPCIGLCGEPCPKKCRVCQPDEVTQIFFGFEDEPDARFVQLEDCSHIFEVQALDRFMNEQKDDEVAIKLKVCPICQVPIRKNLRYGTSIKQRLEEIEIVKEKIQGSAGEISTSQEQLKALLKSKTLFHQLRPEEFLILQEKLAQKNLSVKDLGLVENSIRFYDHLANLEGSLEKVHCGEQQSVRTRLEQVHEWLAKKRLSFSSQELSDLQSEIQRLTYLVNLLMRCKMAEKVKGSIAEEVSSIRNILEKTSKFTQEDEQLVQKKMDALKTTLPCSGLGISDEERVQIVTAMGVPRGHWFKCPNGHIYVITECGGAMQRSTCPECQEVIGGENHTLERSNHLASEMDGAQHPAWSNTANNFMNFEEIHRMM

No constants are given. Whether binding was seen depends on the method and setting. Binding seen in cells or lysates may run through a third protein. A yes stands for co-enrichment or nearness to the bait. Other partners may have been found. No binding means not detected with the bait. Where a sequence is shown, tags or fusion partners need not be part of it.

The assay has as its target T1, biotagged Csde1 (cold shock domain protein e1) (UniProt Q91W50).
T1 sequence (chain, biotin on the biotag (biotin ligase BirA coexpressed)): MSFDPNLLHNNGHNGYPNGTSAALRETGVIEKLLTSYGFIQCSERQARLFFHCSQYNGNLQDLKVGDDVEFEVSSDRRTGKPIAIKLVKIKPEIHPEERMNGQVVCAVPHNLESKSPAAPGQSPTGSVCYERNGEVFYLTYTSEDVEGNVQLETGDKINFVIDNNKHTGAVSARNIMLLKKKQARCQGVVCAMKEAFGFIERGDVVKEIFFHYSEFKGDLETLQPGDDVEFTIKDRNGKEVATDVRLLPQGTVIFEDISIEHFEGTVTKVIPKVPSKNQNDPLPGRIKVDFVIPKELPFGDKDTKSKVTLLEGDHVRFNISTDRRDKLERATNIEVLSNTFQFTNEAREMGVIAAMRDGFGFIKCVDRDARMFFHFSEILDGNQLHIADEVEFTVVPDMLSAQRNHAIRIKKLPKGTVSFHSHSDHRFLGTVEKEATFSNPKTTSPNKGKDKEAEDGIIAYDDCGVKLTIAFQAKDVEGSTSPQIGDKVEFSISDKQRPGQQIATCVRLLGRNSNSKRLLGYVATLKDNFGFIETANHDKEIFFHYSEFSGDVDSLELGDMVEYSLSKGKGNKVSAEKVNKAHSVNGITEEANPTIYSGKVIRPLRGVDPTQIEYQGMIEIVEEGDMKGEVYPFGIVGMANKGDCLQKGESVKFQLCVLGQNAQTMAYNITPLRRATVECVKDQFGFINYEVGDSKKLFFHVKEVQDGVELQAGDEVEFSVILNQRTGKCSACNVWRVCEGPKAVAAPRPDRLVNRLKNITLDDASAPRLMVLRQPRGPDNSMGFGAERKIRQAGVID
Description: affinity purification with mass spectrometry.
Consider Pabpc4 (from UniProt Q6PHQ9 1-660), for which the binding entry is “binds”.

Turning to “hnRNP (heterogeneous nuclear binding protein) C1/C2 (from UniProt Q9Z204 1-313)”, the binding result is “no binding”.

On to “Znfx1 (Zinc finger NFx1-type containing 1) (from UniProt Q8R151 1-1909)”, for which the binding entry is on record as “binds”.
